Results taken from paper doi:10.1101/2025.03.01.640934.
These are yes or no findings as the source states them, for the method shown. Some results given as binding are weak or reduced against the parent protein; the word gives no strength.

Chains of the proteins cited; added tags and fusions are not shown. Lines headed by an entry give the natural chain unless they say otherwise; changes in a name come on top.
UniProt Q6NUN9: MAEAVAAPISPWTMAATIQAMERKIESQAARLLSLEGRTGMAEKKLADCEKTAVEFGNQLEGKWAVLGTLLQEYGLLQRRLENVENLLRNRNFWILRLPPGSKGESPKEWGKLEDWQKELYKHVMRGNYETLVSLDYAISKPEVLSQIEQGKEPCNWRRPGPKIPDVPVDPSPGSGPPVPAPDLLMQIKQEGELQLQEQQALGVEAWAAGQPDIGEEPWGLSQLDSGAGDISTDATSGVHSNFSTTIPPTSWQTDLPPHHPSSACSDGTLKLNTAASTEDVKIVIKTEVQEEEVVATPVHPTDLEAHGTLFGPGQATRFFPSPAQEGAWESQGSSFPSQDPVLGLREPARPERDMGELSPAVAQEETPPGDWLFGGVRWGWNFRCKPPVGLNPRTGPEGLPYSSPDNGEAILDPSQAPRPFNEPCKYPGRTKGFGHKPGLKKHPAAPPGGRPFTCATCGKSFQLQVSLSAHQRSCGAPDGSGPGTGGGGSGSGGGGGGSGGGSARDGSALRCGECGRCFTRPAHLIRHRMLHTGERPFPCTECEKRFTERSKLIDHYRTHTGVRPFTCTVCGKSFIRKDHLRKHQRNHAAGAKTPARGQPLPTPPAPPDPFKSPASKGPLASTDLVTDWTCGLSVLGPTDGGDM

Experiments:
[1] = target: HA-tagged DK fragment of ZNF746, wild-type (human) (UniProt Q6NUN9); assay: native gel or EMSA
[2] = target: HA-tagged full-length ZNF746, wild-type (human) (UniProt Q6NUN9); assay: native gel or EMSA

binding [1]	binding [2]	Substance
binds	–	HA-tagged DK fragment of ZNF746, wild-type (from UniProt Q6NUN9 1-191) (domain or fragment)
–	binds	HA-tagged full-length ZNF746, wild-type (from UniProt Q6NUN9 1-644)
